Reference: the supplement of paper PMC4371806
Whole data set: some 1,600 compounds, median “plate-normalized OD600 growth (mean of duplicates)” near 0.31, cut for the lowest 2% near 0.23. The list shows a part of the results.

Tested on: Escherichia coli BW25113
Test: plate-normalized OD600 growth (mean of duplicates) (OD600 (normalized)); higher = more growth (less inhibition)
Settings: 10 µM
Protocol: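 E. coli BW25113 in LB (100 µl, 96-well, no shaking) was exposed to 10 µM of each compound (here the ChemBridge subset of a ~30,000-member library) and grown at 37°C for 24 h or 15°C for 48 h, in duplicate. Growth was read as OD600 and the duplicate ODs were normalized across screening plates to correct plate-to-plate variation.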

Q: For `O=C(Nc1ccccc1F)C1CC(=O)N(c2ccc(Br)cc2)C1` (configuration not stated), which “plate-normalized OD600 growth” value (temperature: 15°C, 48 h) is on record?
A: 0.249

Q: What about the “plate-normalized OD600 growth” value (temperature: 37°C, 24 h) of the same compound?
A: 0.609

Q: How did the “plate-normalized OD600 growth” value (temperature: 15°C, 48 h) turn out when `COc1ccc2nccnc2c1[N+](=O)[O-]` was run?
A: 0.25

Q: What about the “plate-normalized OD600 growth” value (temperature: 37°C, 24 h) of the same compound?
A: 0.617

Q: Which “plate-normalized OD600 growth” value (temperature: 15°C, 48 h) does the source give for `C1CCN(CCCNC2C3CC4CC(C3)CC2C4)C1` (configuration not stated) here?
A: 0.241

Q: What about the “plate-normalized OD600 growth” value (temperature: 37°C, 24 h) of the same compound?
A: 0.643

Q: For `O=C1c2ccccc2C(=O)N1c1nccs1`, which “plate-normalized OD600 growth” value (temperature: 15°C, 48 h) is on record?
A: 0.239

Q: What about the “plate-normalized OD600 growth” value (temperature: 37°C, 24 h) of the same compound?
A: 0.622

Q: `COc1ccc2nc3c(nc2c1)C(=O)c1ccccc1-3` was tested. Which “plate-normalized OD600 growth” value (temperature: 15°C, 48 h) did it give?
A: 0.234

Q: What about the “plate-normalized OD600 growth” value (temperature: 37°C, 24 h) of the same compound?
A: 0.611

Q: `COc1ccc(CNc2ccccc2)cc1C` was tested. Which “plate-normalized OD600 growth” value (temperature: 15°C, 48 h) did it give?
A: 0.246

Q: What about the “plate-normalized OD600 growth” value (temperature: 37°C, 24 h) of the same compound?
A: 0.615

Q: For `NNC(=O)Nc1ccc(Cc2ccc(NC(=O)NN)cc2)cc1`, which “plate-normalized OD600 growth” value (temperature: 15°C, 48 h) is on record?
A: 0.266

Q: What about the “plate-normalized OD600 growth” value (temperature: 37°C, 24 h) of the same compound?
A: 0.638

Q: What does the source list for `Cc1cccc(CSc2nc(C)cc(=O)[nH]2)c1`?
A: plate-normalized OD600 growth (temperature: 15°C, 48 h): 0.251; plate-normalized OD600 growth (temperature: 37°C, 24 h): 0.617

Q: What does the source list for `O=C(O)CN(CC(=O)O)c1ccccc1`?
A: plate-normalized OD600 growth (temperature: 15°C, 48 h): 0.255; plate-normalized OD600 growth (temperature: 37°C, 24 h): 0.651

Q: For `O=C(O)c1cccc(NC(=O)c2ccc([N+](=O)[O-])cc2)c1`, which “plate-normalized OD600 growth” value (temperature: 15°C, 48 h) is on record?
A: 0.261

Q: And the “plate-normalized OD600 growth” value (temperature: 37°C, 24 h)?
A: 0.617

Q: `CC1(C)CC(=O)C2=C(C1)Nc1ccccc1NC2c1ccccc1F` (configuration not stated) was tested. Which “plate-normalized OD600 growth” value (temperature: 15°C, 48 h) did it give?
A: 0.25

Q: And the “plate-normalized OD600 growth” value (temperature: 37°C, 24 h)?
A: 0.618

Q: With `CCCN1CCC(NCCc2ccccc2OC)CC1` as the compound, how does the “plate-normalized OD600 growth” value (temperature: 15°C, 48 h) read?
A: 0.252

Q: And the “plate-normalized OD600 growth” value (temperature: 37°C, 24 h)?
A: 0.619

Q: With `CC(=O)N1CCC(NC2CCCCCC2)CC1` as the compound, how does the “plate-normalized OD600 growth” value (temperature: 15°C, 48 h) read?
A: 0.269

Q: And the “plate-normalized OD600 growth” value (temperature: 37°C, 24 h)?
A: 0.62

Q: For `COc1cc2c(cc1OC)CN(Cc1ccccn1)CC2`, which “plate-normalized OD600 growth” value (temperature: 15°C, 48 h) is on record?
A: 0.28

Q: And the “plate-normalized OD600 growth” value (temperature: 37°C, 24 h)?
A: 0.644

Q: What does the source list for `Cc1ccc(NC(=O)c2ccc(Br)cc2)c([N+](=O)[O-])c1`?
A: plate-normalized OD600 growth (temperature: 15°C, 48 h): 0.25; plate-normalized OD600 growth (temperature: 37°C, 24 h): 0.593

Q: With `O=C(Cn1cnc2ccccc21)c1ccc(Br)cc1` as the compound, how does the “plate-normalized OD600 growth” value (temperature: 15°C, 48 h) read?
A: 0.238

Q: What about the “plate-normalized OD600 growth” value (temperature: 37°C, 24 h) of the same compound?
A: 0.623

Q: For `NC(=O)N1CCN(C(=O)c2ccco2)CC1`, which “plate-normalized OD600 growth” value (temperature: 15°C, 48 h) is on record?
A: 0.255

Q: What about the “plate-normalized OD600 growth” value (temperature: 37°C, 24 h) of the same compound?
A: 0.633

Q: How did the “plate-normalized OD600 growth” value (temperature: 15°C, 48 h) turn out when `NC(N)=Nc1nc2ccccc2c(=O)[nH]1` was run?
A: 0.254

Q: And the “plate-normalized OD600 growth” value (temperature: 37°C, 24 h)?
A: 0.622

Q: Which “plate-normalized OD600 growth” value (temperature: 15°C, 48 h) does the source give for `Cc1ccsc1CN1CCN(c2ccc([N+](=O)[O-])cc2)CC1` here?
A: 0.256

Q: What about the “plate-normalized OD600 growth” value (temperature: 37°C, 24 h) of the same compound?
A: 0.634

Q: `COc1ccccc1/C=C/CN1CCN(CCOCCO)CC1` was tested. Which “plate-normalized OD600 growth” value (temperature: 15°C, 48 h) did it give?
A: 0.267

Q: What about the “plate-normalized OD600 growth” value (temperature: 37°C, 24 h) of the same compound?
A: 0.661

Q: Which results are given for `CC(C)c1c(C#N)c(N)nc(SCC(=O)c2ccc(Cl)c(Cl)c2)c1C#N`?
A: plate-normalized OD600 growth (temperature: 15°C, 48 h): 0.256; plate-normalized OD600 growth (temperature: 37°C, 24 h): 0.63

Q: `CC(=O)Nc1ccc(S(=O)(=O)N2CCN(C)CC2)cc1` was tested. Which “plate-normalized OD600 growth” value (temperature: 15°C, 48 h) did it give?
A: 0.258

Q: And the “plate-normalized OD600 growth” value (temperature: 37°C, 24 h)?
A: 0.646

Q: What does the source list for `C/C(=C\c1ccccc1)CN1CCN(C)CC1`?
A: plate-normalized OD600 growth (temperature: 15°C, 48 h): 0.251; plate-normalized OD600 growth (temperature: 37°C, 24 h): 0.652

Q: Which “plate-normalized OD600 growth” value (temperature: 15°C, 48 h) does the source give for `COc1ccc(N2C(=O)CC(N3CCN(c4ccccn4)CC3)C2=O)cc1` (configuration not stated) here?
A: 0.24

Q: And the “plate-normalized OD600 growth” value (temperature: 37°C, 24 h)?
A: 0.651

Q: Which “plate-normalized OD600 growth” value (temperature: 15°C, 48 h) does the source give for `CC1CCN(C2CC(=O)N(c3ccccc3)C2=O)CC1` (configuration not stated) here?
A: 0.23

Q: What about the “plate-normalized OD600 growth” value (temperature: 37°C, 24 h) of the same compound?
A: 0.614

Q: Which results are given for `N#CSCCCOc1ccccc1Br`?
A: plate-normalized OD600 growth (temperature: 15°C, 48 h): 0.242; plate-normalized OD600 growth (temperature: 37°C, 24 h): 0.595

Q: Which “plate-normalized OD600 growth” value (temperature: 15°C, 48 h) does the source give for `Cc1c(N)cc(C(=O)O)cc1[N+](=O)[O-]` here?
A: 0.265

Q: And the “plate-normalized OD600 growth” value (temperature: 37°C, 24 h)?
A: 0.66

Q: With `COc1cc(CNCc2ccco2)cc(OC)c1` as the compound, how does the “plate-normalized OD600 growth” value (temperature: 15°C, 48 h) read?
A: 0.255

Q: And the “plate-normalized OD600 growth” value (temperature: 37°C, 24 h)?
A: 0.624

Q: For `CC(=O)NC(C)(CC(=O)c1ccccc1)c1ccccc1` (configuration not stated), which “plate-normalized OD600 growth” value (temperature: 15°C, 48 h) is on record?
A: 0.227

Q: And the “plate-normalized OD600 growth” value (temperature: 37°C, 24 h)?
A: 0.639

Q: Which results are given for `CC(C)=CCC/C(C)=C/CN1CCCN(C)CC1`?
A: plate-normalized OD600 growth (temperature: 15°C, 48 h): 0.234; plate-normalized OD600 growth (temperature: 37°C, 24 h): 0.63

Q: How did the “plate-normalized OD600 growth” value (temperature: 15°C, 48 h) turn out when `CC(=O)N1CCCC1(C(=O)O)c1ccccc1` (configuration not stated) was run?
A: 0.259

Q: And the “plate-normalized OD600 growth” value (temperature: 37°C, 24 h)?
A: 0.629
